PubChem BioAssay AID1671195 | Yale University | 2021

Purpose: 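Genes whose knockdown alters LDL uptake in liver cancer cells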 (primary screen)
System: human Huh7 hepatoma cells
Reagents: siRNA pool against human genes, 18 nM
Timing: about 2 to 2.5 days of knockdown, then 8 h LDL uptake
Conditions: DiI-labelled LDL at 30 µg/ml for 8 h, in lipoprotein-deficient serum medium
Measurement: 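Fluorescent LDL signal imaged in cells, scaled to the plate median, robust z-score for each replicate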
Direction: robust z-score: higher = more LDL uptake after knockdown
Rule for the call: 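a gene counts as active if at least two replicate z-scores exceed ±2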
The whole screen tested about 22,000 reagents; this is an unselected part. About 1,510 of them (6.9%) were called active. 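Active includes knockdowns raising or lowering LDL uptake; positive z-scores mean more uptake, negative mean less.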 The numbers tell different reagents against one gene apart.

| gene knocked down | reagent | robust z-score, replicate 1 | robust z-score, replicate 2 | robust z-score, replicate 3 | Outcome |
| --- | --- | --- | --- | --- | --- |
| LOC388466 (retired record) | 1 | 1.02 | 0.849 | 1.28 | inactive |
| ZNHIT2 | 1 | -0.389 | -0.64 | -1.35 | inactive |
| NKX2-3 | 1 | -0.178 | -0.55 | -0.237 | inactive |
| MBNL3 | 1 | -0.197 | 0.0251 | 0.07 | inactive |
| UMODL1-AS1 | 1 | -1.04 | -1.14 | -1.17 | inactive |
| NKX3-1 | 1 | 0.856 | 0.278 | 1.17 | inactive |
| PRDM13 | 1 | 1.41 | 0.879 | 1.41 | inactive |
| PLXNB2 | 1 | -0.508 | -0.581 | -0.973 | inactive |
| ZNF654 | 1 | -0.894 | -0.224 | -0.0102 | inactive |
| LOC391459 (retired record) | 1 | -0.834 | -1.19 | -1.32 | inactive |
| HACD3 | 1 | -0.891 | -1.68 | -1.27 | inactive |
| ZDHHC8 | 1 | 0.205 | 0.732 | -0.106 | inactive |
| ZNF205 | 1 | 1.28 | 1.14 | 0.477 | inactive |
| IER2 | 1 | 0.26 | -0.283 | -1.23 | inactive |
| WARS1 | 1 | -0.157 | -0.0888 | 0.545 | inactive |
| KIFC2 | 1 | -0.318 | -1.25 | -0.588 | inactive |
| PROK2 | 1 | -0.503 | 0.247 | -0.308 | inactive |
| LOC440135 (retired record) | 1 | -0.625 | -0.818 | -0.265 | inactive |
| LCN10 | 1 | -1.28 | -1.07 | -0.749 | inactive |
| PDYN | 1 | 4.22 | 2.32 | 3.14 | active |
| TSLP | 1 | -0.18 | 0.142 | -0.791 | inactive |
| GALM | 1 | 0.245 | 0.195 | 0.252 | inactive |
| LRPAP1 | 1 | -0.576 | 0.637 | -0.758 | inactive |
| GLRA1 | 1 | 0.432 | 1.26 | 0.626 | inactive |
| CCAR1 | 1 | -1.34 | -1.14 | -0.883 | inactive |
| XYLB | 1 | 0.0719 | 0.647 | 0.612 | inactive |
| AGMO | 1 | 0.299 | 0.402 | 0.93 | inactive |
| RCOR1 | 1 | 1.45 | 0.426 | 0.959 | inactive |
| MECP2 | 1 | -0.561 | 0.0979 | -0.681 | inactive |
| UBR4 | 1 | -0.0926 | -0.944 | -0.0315 | inactive |
| UBR4 | 2 | -1.86 | 0.707 | -2.35 | inactive |
| GMEB2 | 1 | -1.3 | -2.22 | -1.32 | inactive |
| PLCD1 | 1 | 0.345 | 0.376 | 0.704 | inactive |
| LRRC74BNL | 1 | -0.0646 | -0.773 | -0.331 | inactive |
| SSR2 | 1 | -0.858 | -0.471 | -0.0977 | inactive |
| CASP8 | 1 | -1.17 | -1.03 | -0.584 | inactive |
| IL36B | 1 | 0.707 | 2.87 | 3.17 | active |
| PLOD1 | 1 | 0.889 | 0.883 | 0.853 | inactive |
| DDX28 | 1 | 0.634 | 1.21 | 0.961 | inactive |
| OR2J1 | 1 | -0.218 | 0.335 | -0.917 | inactive |
| LOC401191 | 1 | 1.84 | 0.00294 | 2.15 | inactive |
| MAN2A1 | 1 | 0.148 | 0.679 | 0.0927 | inactive |
| TBC1D28 | 1 | -0.22 | 0.0635 | 0.403 | inactive |
| IL33 | 1 | -0.0551 | 0.316 | 0.687 | inactive |
| TMEM151B | 1 | -0.113 | -0.281 | -0.139 | inactive |
| OR2F1 | 1 | 0.451 | -1.14 | 0.294 | inactive |
| TMC8 | 1 | -0.342 | 0.33 | 0.434 | inactive |
| KCNF1 | 1 | -0.157 | 0.485 | 0.141 | inactive |
| PADI3 | 1 | -0.96 | -0.352 | -0.768 | inactive |
| LOC388489 (retired record) | 1 | 1.62 | 1.61 | 1.6 | inactive |
| MEX3B | 1 | 2.51 | 2.39 | 1.67 | active |
| RBPMS | 1 | -0.533 | -0.661 | -1.14 | inactive |
| LINC00839 | 1 | 0.277 | -0.0838 | 0.176 | inactive |
| ZNF618 | 1 | -0.705 | -1 | -1.01 | inactive |
| ZSCAN5B | 1 | -0.523 | -0.506 | -0.376 | inactive |
| LOC441477 (retired record) | 1 | 1.16 | 0.797 | 0.467 | inactive |
| ZNF702P | 1 | -1.28 | -1.32 | -0.482 | inactive |
| PIMREG | 1 | -1.16 | -0.716 | -1.29 | inactive |
| RPS6KB2 | 1 | -0.628 | -0.286 | 0.121 | inactive |
| TNFRSF25 | 1 | 1.98 | 0.841 | 2.26 | active |
| WDPCP | 1 | 1.94 | 2.12 | -1.68 | active |
| DRG2 | 1 | -1.5 | -1.51 | -1.31 | inactive |
| SLC6A17 | 1 | 0.441 | 0.349 | 0.0738 | inactive |
| DCST1 | 1 | -0.0453 | 0.18 | -0.322 | inactive |
| CCL2 | 1 | -1.58 | -1.52 | -1.06 | inactive |
| SGCZ | 1 | -1.1 | -0.0483 | -0.131 | inactive |
| SUCNR1 | 1 | 1.08 | -0.732 | 1.81 | inactive |
| RIMKLA | 1 | 2 | 2.31 | 1.34 | active |

Records listed so far whose gene name begins with P or p (8):
| gene knocked down | reagent | robust z-score, replicate 1 | robust z-score, replicate 2 | robust z-score, replicate 3 | Outcome |
| --- | --- | --- | --- | --- | --- |
| PRDM13 | 1 | 1.41 | 0.879 | 1.41 | inactive |
| PLXNB2 | 1 | -0.508 | -0.581 | -0.973 | inactive |
| PROK2 | 1 | -0.503 | 0.247 | -0.308 | inactive |
| PDYN | 1 | 4.22 | 2.32 | 3.14 | active |
| PLCD1 | 1 | 0.345 | 0.376 | 0.704 | inactive |
| PLOD1 | 1 | 0.889 | 0.883 | 0.853 | inactive |
| PADI3 | 1 | -0.96 | -0.352 | -0.768 | inactive |
| PIMREG | 1 | -1.16 | -0.716 | -1.29 | inactive |
